Results as given in the supplement of paper PMC8728848.
Some of the results follow.

Legend:
Experiment in all cases: glycan array binding signal (z-score within array); higher = stronger binding
Conditions in all cases: glycan notation: IUPAC condensed, linker removed
[1] = biological target: Man(a1-3)[Man(a1-6)]Man(a1-6)[Man(a1-2)Man(a1-3)]Man(b1-4)GlcNAc(b1-4)GlcNAc
Procedure, shortened: (§1)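 Negative Z-scores can be read as non-binding. The Z-score is calculated within each array and then averaged across arrays of one protein sequence at different concentrations or buffers and across linkers. Arrays, 3228 in all, were curated from the Consortium for Functional Glycomics database and kept only where the protein sequence was available.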

[2] = biological target: Man(a1-3)[Man(a1-6)]Man(a1-6)[Man(a1-3)]Man
Procedure, shortened: as §1

[3] = biological target: Man(a1-3)[Man(a1-6)]Man(a1-6)[Man(a1-3)]Man(b1-4)GlcNAc(b1-4)GlcNAc
Procedure, shortened: as §1

[4] = biological target: Man(a1-3)[Man(a1-6)]Man(b1-4)GlcNAc(b1-4)GlcNAc
Procedure, shortened: as §1

[5] = biological target: Man(a1-3)[Man(a1-6)]Man(b1-4)GlcNAc(b1-4)[Fuc(a1-6)]GlcNAc
Procedure, shortened: as §1

[6] = biological target: Man(a1-6)Man
Procedure, shortened: as §1

[7] = biological target: Man(b1-4)GlcNAc
Procedure, shortened: as §1

[8] = biological target: MurNAc(b1-4)GlcNAc
Procedure, shortened: as §1

[9] = biological target: Neu5Ac(a2-3)Gal
Procedure, shortened: as §1

[10] = biological target: Neu5Ac(a2-3)Gal(b1-3)GalNAc
Procedure, shortened: as §1

[11] = biological target: Neu5Ac(a2-3)Gal(b1-3)GalNAc(b1-3)Gal(a1-4)Gal(b1-4)Glc
Procedure, shortened: as §1

[12] = biological target: Neu5Ac(a2-3)Gal(b1-3)GalNAc(b1-4)[Neu5Ac(a2-3)]Gal(b1-4)Glc
Procedure, shortened: as §1

[13] = biological target: Neu5Ac(a2-3)Gal(b1-3)GalNAc(b1-4)[Neu5Ac(a2-8)Neu5Ac(a2-3)]Gal(b1-4)Glc
Procedure, shortened: as §1

[14] = biological target: Neu5Ac(a2-3)Gal(b1-3)GalNAc6S
Procedure, shortened: as §1

[15] = biological target: Neu5Ac(a2-3)Gal(b1-3)GlcNAc
Procedure, shortened: as §1

[16] = biological target: Neu5Ac(a2-3)Gal(b1-3)GlcNAc(b1-2)Man
Procedure, shortened: as §1

[17] = biological target: Neu5Ac(a2-3)Gal(b1-3)GlcNAc(b1-2)Man(a1-3)[GlcNAc(b1-4)][Neu5Ac(a2-3)Gal(b1-3)GlcNAc(b1-2)Man(a1-6)]Man(b1-4)GlcNAc(b1-4)GlcNAc
Procedure, shortened: as §1

[18] = biological target: Neu5Ac(a2-3)Gal(b1-3)GlcNAc(b1-2)Man(a1-3)[Neu5Ac(a2-3)Gal(b1-3)GlcNAc(b1-2)Man(a1-6)]Man(b1-4)GlcNAc(b1-4)GlcNAc
Procedure, shortened: as §1

[19] = biological target: Neu5Ac(a2-3)Gal(b1-3)GlcNAc(b1-3)Gal(b1-3)GlcNAc
Procedure, shortened: as §1

[20] = biological target: Neu5Ac(a2-3)Gal(b1-3)GlcNAc(b1-3)Gal(b1-4)GlcNAc
Procedure, shortened: as §1

[21] = biological target: Neu5Ac(a2-3)Gal(b1-3)GlcNAc(b1-3)GalNAc
Procedure, shortened: as §1

[22] = biological target: Neu5Ac(a2-3)Gal(b1-3)GlcNAc(b1-4)Gal(b1-4)Glc
Procedure, shortened: as §1

[23] = biological target: Neu5Ac(a2-3)Gal(b1-3)GlcNAc(b1-6)GalNAc
Procedure, shortened: as §1

[24] = biological target: Neu5Ac(a2-3)Gal(b1-3)GlcNAc6S
Procedure, shortened: as §1

[25] = biological target: Neu5Ac(a2-3)Gal(b1-3)[Fuc(a1-4)]GlcNAc
Procedure, shortened: as §1

[26] = biological target: Neu5Ac(a2-3)Gal(b1-3)[Fuc(a1-4)]GlcNAc(b1-3)Gal(b1-3)[Fuc(a1-4)]GlcNAc
Procedure, shortened: as §1

[27] = biological target: Neu5Ac(a2-3)Gal(b1-3)[Fuc(a1-4)]GlcNAc(b1-3)Gal(b1-4)[Fuc(a1-3)]GlcNAc
Procedure, shortened: as §1

[28] = biological target: Neu5Ac(a2-3)Gal(b1-3)[GlcNAc(b1-6)]GalNAc
Procedure, shortened: as §1

[29] = biological target: Neu5Ac(a2-3)Gal(b1-3)[Neu5Ac(a2-6)]GalNAc
Procedure, shortened: as §1

[30] = biological target: Neu5Ac(a2-3)Gal(b1-3)[Neu5Ac(a2-6)]GlcNAc(b1-3)[Fuc(a1-3)[Gal(b1-4)]GlcNAc(b1-6)]Gal(b1-4)Glc
Procedure, shortened: as §1

[31] = biological target: Neu5Ac(a2-3)Gal(b1-3)]Neu5Ac(a2-3)Gal(b1-4)]GlcNAc
Procedure, shortened: as §1

[32] = biological target: Neu5Ac(a2-3)Gal(b1-4)Glc
Procedure, shortened: as §1

[33] = biological target: Neu5Ac(a2-3)Gal(b1-4)GlcNAc
Procedure, shortened: as §1

[34] = biological target: Neu5Ac(a2-3)Gal(b1-4)GlcNAc(b1-2)Man
Procedure, shortened: as §1

[35] = biological target: Neu5Ac(a2-3)Gal(b1-4)GlcNAc(b1-2)Man(a1-3)[GlcNAc(b1-4)][Neu5Ac(a2-3)Gal(b1-4)GlcNAc(b1-2)Man(a1-6)]Man(b1-4)GlcNAc(b1-4)GlcNAc
Procedure, shortened: as §1

[36] = biological target: Neu5Ac(a2-3)Gal(b1-4)GlcNAc(b1-2)Man(a1-3)[Neu5Ac(a2-3)Gal(b1-4)GlcNAc(b1-2)Man(a1-6)]Man(b1-4)GlcNAc(b1-4)GlcNAc
Procedure, shortened: as §1

[37] = biological target: Neu5Ac(a2-3)Gal(b1-4)GlcNAc(b1-2)Man(a1-3)[Neu5Ac(a2-3)Gal(b1-4)GlcNAc(b1-2)Man(a1-6)]Man(b1-4)GlcNAc(b1-4)[Fuc(a1-6)]GlcNAc
Procedure, shortened: as §1

[38] = biological target: Neu5Ac(a2-3)Gal(b1-4)GlcNAc(b1-2)Man(a1-3)[Neu5Ac(a2-6)Gal(b1-4)GlcNAc(b1-2)Man(a1-6)]Man(b1-4)GlcNAc(b1-4)GlcNAc
Procedure, shortened: as §1

B1: SP15308B-bot-339-22-339 (Bacteroides ovatus) (protein)
chain: NEWEDEQYEQYVSFKAPIASGSDGVTTIYVRYKDNGKVTYQLPIIVSGSTVNSQDRDIHIAVDKDTLKTLNIERFSLYRPELWYTEMEEDKYEFPETVHIPAGSCVELLNIDFNLQDIDMLEKWVLPLTIVDDGSYAYQSHPRKNYAKALLKVVPFNNYSGSYTASSMKVYTYINGKPDTNARTTDKRTGYVVDNNSIFFYAGLINEDMDKDMRKKYKINVHFKEDGTLDMKQDDPSNEMEFELIGTPTYSSTSVMDATRPYLERRYVQIMFEYDFQDFTYGGSGTEVIPIKYRVAGSMTLLRNINTQIPDEDQQIEW
glycan array binding signal (z-score) [1]: -0.333 | glycan array binding signal (z-score) [2]: -0.212 | glycan array binding signal (z-score) [3]: -0.353 | glycan array binding signal (z-score) [4]: -0.771 | glycan array binding signal (z-score) [5]: -0.222 | glycan array binding signal (z-score) [6]: 0.174 | glycan array binding signal (z-score) [7]: 0.693 | glycan array binding signal (z-score) [8]: -0.294 | glycan array binding signal (z-score) [9]: -0.692 | glycan array binding signal (z-score) [10]: -0.294 | glycan array binding signal (z-score) [11]: 0.161 | glycan array binding signal (z-score) [12]: -0.49 | glycan array binding signal (z-score) [13]: -0.13 | glycan array binding signal (z-score) [14]: -0.444 | glycan array binding signal (z-score) [15]: 0.259 | glycan array binding signal (z-score) [16]: -0.178 | glycan array binding signal (z-score) [17]: -0.316 | glycan array binding signal (z-score) [18]: -0.211 | glycan array binding signal (z-score) [19]: -0.169 | glycan array binding signal (z-score) [20]: -0.305 | glycan array binding signal (z-score) [21]: -0.054 | glycan array binding signal (z-score) [22]: -0.688 | glycan array binding signal (z-score) [23]: -0.009 | glycan array binding signal (z-score) [24]: -0.245 | glycan array binding signal (z-score) [25]: -0.5 | glycan array binding signal (z-score) [26]: -0.072 | glycan array binding signal (z-score) [27]: -0.187 | glycan array binding signal (z-score) [28]: -0.624 | glycan array binding signal (z-score) [29]: -0.071 | glycan array binding signal (z-score) [30]: 0.337 | glycan array binding signal (z-score) [31]: -0.519 | glycan array binding signal (z-score) [32]: 0.116 | glycan array binding signal (z-score) [33]: 0.081 | glycan array binding signal (z-score) [34]: -0.269 | glycan array binding signal (z-score) [35]: -0.644 | glycan array binding signal (z-score) [36]: 0.076 | glycan array binding signal (z-score) [37]: 0.322 | glycan array binding signal (z-score) [38]: -0.554
